Source: article PMC4141641
Like-named read-outs stand apart in the source and are kept apart here. No constants are given. Whether binding was seen depends on the method and setting. Binding seen in cells or lysates may run through a third protein. Some results given as binding are weak or reduced against the parent protein; the word gives no strength.

Protein sequences, listed by entry. Tags and fused reporters are not part of them.
UniProt Q92826: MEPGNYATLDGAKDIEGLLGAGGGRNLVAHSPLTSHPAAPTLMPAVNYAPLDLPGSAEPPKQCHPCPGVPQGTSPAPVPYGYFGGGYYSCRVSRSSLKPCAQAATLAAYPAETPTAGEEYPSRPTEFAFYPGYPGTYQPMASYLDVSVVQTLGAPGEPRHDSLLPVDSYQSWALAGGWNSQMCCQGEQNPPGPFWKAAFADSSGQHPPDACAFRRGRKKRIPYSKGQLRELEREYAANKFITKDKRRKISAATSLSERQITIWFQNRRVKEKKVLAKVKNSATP
UniProt P09874: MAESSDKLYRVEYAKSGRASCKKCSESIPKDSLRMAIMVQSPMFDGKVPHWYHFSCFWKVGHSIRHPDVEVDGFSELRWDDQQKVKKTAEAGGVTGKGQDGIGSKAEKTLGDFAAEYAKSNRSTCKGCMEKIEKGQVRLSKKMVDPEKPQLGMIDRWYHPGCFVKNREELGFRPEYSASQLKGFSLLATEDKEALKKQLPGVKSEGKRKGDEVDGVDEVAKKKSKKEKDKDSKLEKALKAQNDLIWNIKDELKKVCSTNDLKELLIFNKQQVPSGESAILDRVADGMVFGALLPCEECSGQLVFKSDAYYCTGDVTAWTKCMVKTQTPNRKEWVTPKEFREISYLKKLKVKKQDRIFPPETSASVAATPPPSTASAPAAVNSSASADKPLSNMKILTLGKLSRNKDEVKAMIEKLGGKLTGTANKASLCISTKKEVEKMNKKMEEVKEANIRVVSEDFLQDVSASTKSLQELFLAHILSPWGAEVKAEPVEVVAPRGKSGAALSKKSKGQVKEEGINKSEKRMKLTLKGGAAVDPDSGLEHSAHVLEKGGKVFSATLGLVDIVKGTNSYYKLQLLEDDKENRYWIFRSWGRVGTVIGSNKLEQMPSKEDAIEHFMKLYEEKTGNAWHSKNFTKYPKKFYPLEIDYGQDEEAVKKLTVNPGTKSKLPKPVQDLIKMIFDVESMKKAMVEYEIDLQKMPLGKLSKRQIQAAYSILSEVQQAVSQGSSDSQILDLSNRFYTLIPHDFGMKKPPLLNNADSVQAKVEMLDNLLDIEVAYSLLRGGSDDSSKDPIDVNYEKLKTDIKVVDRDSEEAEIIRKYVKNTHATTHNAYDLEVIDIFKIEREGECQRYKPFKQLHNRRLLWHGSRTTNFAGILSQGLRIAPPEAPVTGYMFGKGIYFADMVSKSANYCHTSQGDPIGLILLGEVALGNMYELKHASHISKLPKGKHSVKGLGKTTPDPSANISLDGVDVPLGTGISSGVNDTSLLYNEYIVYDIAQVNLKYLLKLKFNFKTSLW
UniProt P12956: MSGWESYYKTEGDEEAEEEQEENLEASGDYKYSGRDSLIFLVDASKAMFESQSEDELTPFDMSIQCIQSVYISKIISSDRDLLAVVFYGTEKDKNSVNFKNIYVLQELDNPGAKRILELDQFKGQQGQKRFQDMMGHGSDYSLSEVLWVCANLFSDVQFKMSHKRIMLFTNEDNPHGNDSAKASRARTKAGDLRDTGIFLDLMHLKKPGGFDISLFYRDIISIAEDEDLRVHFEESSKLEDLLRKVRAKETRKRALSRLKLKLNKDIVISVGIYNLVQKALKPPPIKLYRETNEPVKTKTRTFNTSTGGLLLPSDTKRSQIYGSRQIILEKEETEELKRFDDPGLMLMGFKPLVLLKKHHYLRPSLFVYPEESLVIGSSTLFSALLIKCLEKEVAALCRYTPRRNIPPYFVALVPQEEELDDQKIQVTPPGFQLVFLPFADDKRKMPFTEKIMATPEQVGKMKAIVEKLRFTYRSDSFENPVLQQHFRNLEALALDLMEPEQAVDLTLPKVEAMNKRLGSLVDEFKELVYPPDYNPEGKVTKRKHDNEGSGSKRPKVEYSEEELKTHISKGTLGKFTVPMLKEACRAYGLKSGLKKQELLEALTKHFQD
UniProt P13010: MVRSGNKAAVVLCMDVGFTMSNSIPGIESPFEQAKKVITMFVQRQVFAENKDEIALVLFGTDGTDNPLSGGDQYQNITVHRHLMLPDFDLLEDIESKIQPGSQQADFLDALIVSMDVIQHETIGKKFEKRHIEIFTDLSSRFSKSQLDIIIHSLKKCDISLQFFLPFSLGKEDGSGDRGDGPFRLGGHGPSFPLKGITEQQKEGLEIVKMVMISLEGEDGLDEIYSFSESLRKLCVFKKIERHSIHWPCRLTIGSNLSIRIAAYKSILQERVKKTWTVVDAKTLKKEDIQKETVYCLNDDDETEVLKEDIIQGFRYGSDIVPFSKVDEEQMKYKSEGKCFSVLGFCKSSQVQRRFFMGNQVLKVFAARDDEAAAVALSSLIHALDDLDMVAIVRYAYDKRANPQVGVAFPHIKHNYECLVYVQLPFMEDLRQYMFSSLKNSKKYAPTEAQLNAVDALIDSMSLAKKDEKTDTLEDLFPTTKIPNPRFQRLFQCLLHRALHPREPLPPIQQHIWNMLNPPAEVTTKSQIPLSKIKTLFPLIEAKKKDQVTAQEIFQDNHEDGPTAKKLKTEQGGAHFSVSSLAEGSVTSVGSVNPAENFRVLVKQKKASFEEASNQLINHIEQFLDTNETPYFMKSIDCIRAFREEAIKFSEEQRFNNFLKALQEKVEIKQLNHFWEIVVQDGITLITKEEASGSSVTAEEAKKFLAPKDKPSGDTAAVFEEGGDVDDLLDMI

What was measured:
FLAG-NKX3.1 (human) [1] = biological target: FLAG-NKX3.1 (human) (UniProt Q99801); experiment: co-IP; LNCaP cells transfected with FLAG-NKX3.1 or empty vector; lysate absorbed to FLAG M2 resin; co-purifying endogenous proteins detected by immunoblotting
[2] = biological target: endogenous NKX3.1 (human (endogenous in LNCaP)) (UniProt Q99801); experiment: co-IP; nuclear protein fraction of LNCaP cells, immunoprecipitation with NKX3.1 antibodies or IgG control; immunoblotting
FLAG-NKX3.1 (human) [3] = biological target: FLAG-NKX3.1 (human) (UniProt Q99801); experiment: co-IP; LNCaP cells transfected with FLAG-NKX3.1 or empty vector; lysate absorbed to FLAG M2 resin; co-purifying endogenous proteins detected by immunoblotting; remark: listed apart in the source

| Molecule | binding (FLAG-NKX3.1 (human) [1]) | binding [2] | binding (FLAG-NKX3.1 (human) [3]) |
| --- | --- | --- | --- |
| homeobox transcription factor HOXB13 (from UniProt Q92826 1-284) | binds |  |  |
| poly(ADP) ribose polymerase (PARP1) (from UniProt P09874 1-1014) (enzyme) | binds | binds |  |
| XRCC6/Ku70 (from UniProt P12956 1-609) | binds | binds |  |
| XRCC5/Ku80 (from UniProt P13010 1-732) | binds | binds |  |
| chromatin and nuclear assembly regulator BANF1 (protein, UniProt O75531 1-89) MTTSQKHRDFVAEPMGEKPVGSLAGIGEVLGKKLEERGFDKAYVVLGQFLVLKKDEDLFREWLKDTCGANAKQSRDCFGCLREWCDAFL |  |  | binds |
